Source: PubChem BioAssay AID1259405 (NCATS, 2018)
This is a random part of about 50,000 reagents. Of all reagents, about 4,000 (8%) got an active call. 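Mouse siRNA library applied to hamster cells; one well for each siRNA.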 A number with no mark means an inactive call. The numbers tell different reagents against one gene apart.

- Assay: 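Knock-downs that lift recombinant protein yield in hamster ovary cells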 (primary screen)
- System: Chinese hamster CHO-K1 ovary cells with stable secreted eGFP expression
- Knock-down reagent: single siRNA against mouse genes, 0.8 pmol siRNA per well (2 µl of 400 nM stock)
- Timing: 3 days
- Detection: 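Per-well intracellular GFP measured by laser scanning cytometry, plus viability from ATP luminescence, each relative to plate median of non-targeting control wells, in %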
- Direction: GFP, % of control: higher = more GFP per well, higher productivity; viability (ATP), % of control: higher = more viable cells (more ATP)
- Rule for the call: 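a knock-down is called active if GFP reaches 120% or more of non-targeting control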

gene,reagent no.,"GFP, % of control","viability (ATP), % of control"
Abcb4,1,56.1,45.3
Abcb4,2,85.8,102
Abcb4,3,61.7,82.1
Col9a1,1,59.5,44.9
Col9a1,2,77.7,66.4
Col9a1,3,64.2,67.7
Ipp,1,97.8,78.9
Ipp,2,62.5,101
Dap3,1,79.9,79.8
Dap3,2,117,83.6
Dap3,3,62.4,65.3
Rabep1,1,102,86.6
Rabep1,2,20.2,33.9
Rabep1,3,78.3,73.9
Slc25a17,1,12.4,14.7
Slc25a17,2,65,88.6
Slc25a17,3,154 (active),92.6
Slc25a17,4,80.6,104
Slc25a17,5,76.3,95.6
Slc25a17,6,81.4,64.7
Cfap65,1,96.6,62.3
Cfap65,2,65.8,71.3
Cfap65,3,56.8,56.3
Pipox,1,80.8,71.5
Pipox,2,62.8,55.7
Pipox,3,91.9,70.1
Chmp2b,1,133 (active),161
Chmp2b,2,70.6,102
Chmp2b,3,56.5,98.7
Map6,1,115,67.4
Map6,2,28.5,22.9
Map6,3,75.9,52.4
Klra21,1,98.2,95.5
Klra21,2,179 (active),107
Klra21,3,108,76.3
Gm6034,1,83.4,67.6
Gm6034,2,92,66
Gm6034,3,35.1,29.1
Pum2,1,103,81.3
Pum2,2,100,85.4
4930563M21Rik,1,137 (active),104
4930563M21Rik,2,61.1,55.8
4930563M21Rik,3,75.9,69
Iyd,1,89,44.8
Iyd,2,93.9,44.9
Iyd,3,90.9,94.3
Fam181b,1,48,30.4
Fam181b,2,69.8,51.4
Fam181b,3,74.6,62.4
Rassf2,1,113,76.5
Rassf2,2,95.8,82.9
Rassf2,3,60.5,56.4
Tmod4,1,88,73.8
Tmod4,2,68,65.9
Tmod4,3,35.8,47.3
Cldn7,1,66,62.6
Cldn7,2,62,64.6
Cldn7,3,101,119
Ereg,1,54.1,74.8
Ereg,2,77.8,51.7
Ereg,3,92.6,107

17 entries from above, reformatted.
gene | reagent no. | GFP, % of control | viability (ATP), % of control
Slc25a17 | 4 | 80.6 | 104
Slc25a17 | 5 | 76.3 | 95.6
Slc25a17 | 6 | 81.4 | 64.7
Cfap65 | 1 | 96.6 | 62.3
Cfap65 | 2 | 65.8 | 71.3
Cfap65 | 3 | 56.8 | 56.3
Pipox | 1 | 80.8 | 71.5
Pipox | 2 | 62.8 | 55.7
Pipox | 3 | 91.9 | 70.1
Chmp2b | 1 | 133 (active) | 161
Chmp2b | 2 | 70.6 | 102
Chmp2b | 3 | 56.5 | 98.7
Map6 | 1 | 115 | 67.4
Map6 | 2 | 28.5 | 22.9
Map6 | 3 | 75.9 | 52.4
Klra21 | 1 | 98.2 | 95.5
Klra21 | 2 | 179 (active) | 107

Additional reagents:
gene,reagent no.,"GFP, % of control","viability (ATP), % of control"
Pofut3,1,157 (active),117
Pofut3,2,95,135
Pofut3,3,88,120
Klra10,1,47.7,64.5
Klra10,2,69.8,67.1
Klra10,3,80.5,52.4
Gcm1,1,73.8,88.1
Gcm1,2,39.9,43
Gmeb1,1,75.2,89.6
Gmeb1,2,62.8,47.8
Gmeb1,3,69.1,76.3
Duoxa2,1,34.7,15.5
Duoxa2,2,73.3,70.7
Duoxa2,3,103,119
Oas1e,1,85.2,72.5
Oas1e,2,53.9,44.3
Oas1e,3,48.9,43.4
Or8c17,1,66.3,52
Or8c17,2,73.3,45.4
Or8c17,3,90.5,86.9
Prss28,1,80.3,52.1
Prss28,2,40.7,40.7
Prss28,3,83.3,62.3
Bend5,1,102,85.3
Bend5,2,54.5,29.8
Bend5,3,88.3,83.6
Bach2os,1,20.8,31.6
Bach2os,2,76,63.9
Bach2os,3,111,141
Nemf,1,51.3,76.7
Nemf,2,77.2,84.7
Nemf,3,56.4,62.7
H2-Ea,1,93.4,100
H2-Ea,2,116,88.8
H2-Ea,3,82.2,89.2
Cdkn2a,1,75.4,66
Cdkn2a,2,68.6,43.5
Cdkn2a,3,103,100
Tub,1,36.3,20.4
Tub,2,71.4,88.5
Tub,3,108,97
Or7e177,1,77.3,79.3
Or7e177,2,97.9,72.4
Or7e177,3,67.4,80.6
Mindy4,1,89.1,97.3
Mindy4,2,76.5,99.6
Mindy4,3,79.9,108
